Assay results: publication PMC9169620, “Helical self-assembly of a mucin segment suggests an evolutionary origin for von Willebrand factor tubules” (Proceedings of the National Academy of Sciences of the …, 2022)
Results are given in words; binding and its absence hold for the method and conditions named. Sequences can lack the tags named with a protein.

Biological target: MUC2 D1D2D3 (residues 21 to 1259 followed by a His6 tag) (human) (UniProt Q02817)
Experiment: condition: only at pH 6.0 and above (sharp transition to large species between pH 6.0 and pH 5.8); dynamic light scattering; MUC2 D1D2D3 at 0.3 mg/mL in 50 mM MES at varying pH, 150 mM NaCl, 37 °C; samples at pH 6.0 and above (before the transition to large species); both purified

- binding: no binding
B1: MUC2 D1D2D3 (residues 21 to 1259 followed by a His6 tag) (domain or fragment, human, UniProt Q02817 21-1259, looked up)
chain: SELQTEGRTRNHGHNVCSTWGNFHYKTFDGDVFRFPGLCDYNFASDCRGSYKEFAVHLKRGPGQAEAPAGVESILLTIKDDTIYLTRHLAVLNGAVVSTPHYSPGLLIEKSDAYTKVYSRAGLTLMWNREDALMLELDTKFRNHTCGLCGDYNGLQSYSEFLSDGVLFSPLEFGNMQKINQPDVVCEDPEEEVAPASCSEHRAECERLLTAEAFADCQDLVPLEPYLRACQQDRCRCPGGDTCVCSTVAEFSRQCSHAGGRPGNWRTATLCPKTCPGNLVYLESGSPCMDTCSHLEVSSLCEEHRMDGCFCPEGTVYDDIGDSGCVPVSQCHCRLHGHLYTPGQEITNDCEQCVCNAGRWVCKDLPCPGTCALEGGSHITTFDGKTYTFHGDCYYVLAKGDHNDSYALLGELAPCGSTDKQTCLKTVVLLADKKKNVVVFKSDGSVLLNELQVNLPHVTASFSVFRPSSYHIMVSMAIGVRLQVQLAPVMQLFVTLDQASQGQVQGLCGNFNGLEGDDFKTASGLVEATGAGFANTWKAQSSCHDKLDWLDDPCSLNIESANYAEHWCSLLKKTETPFGRCHSAVDPAEYYKRCKYDTCNCQNNEDCLCAALSSYARACTAKGVMLWGWREHVCNKDVGSCPNSQVFLYNLTTCQQTCRSLSEADSHCLEGFAPVDGCGCPDHTFLDEKGRCVPLAKCSCYHRGLYLEAGDVVVRQEERCVCRDGRLHCRQIRLIGQSCTAPKIHMDCSNLTALATSKPRALSCQTLAAGYYHTECVSGCVCPDGLMDDGRGGCVVEKECPCVHNNDLYSSGAKIKVDCNTCTCKRGRWVCTQAVCHGTCSIYGSGHYITFDGKYYDFDGHCSYVAVQDYCGQNSSLGSFSIITENVPCGTTGVTCSKAIKIFMGRTELKLEDKHRVVIQRDEGHHVAYTTREVGQYLVVESSTGIIVIWDKRTTVFIKLAPSYKGTVCGLCGNFDHRSNNDFTTRDHMVVSSELDFGNSWKEAPTCPDVSTNPEPCSLNPHRRSWAEKQCSILKSSVFSICHSKVDPKPFYEACVHDSCSCDTGGDCECFCSAVASYAQECTKEGACVFWRTPDLCPIFCDYYNPPHECEWHYEPCGNRSFETCRTINGIHSNISVSYLEGCYPRCPKDRPIYEEDLKKCVTADKCGCYVEDTHYPPGASVPTEETCKSCVCTNSSQVVCRPEEGKILNQTQDGAFCYWEICGPNGTVEKHFNICSIT
notes: Mucin-2 (MUC2), human intestinal gel-forming mucin, amino-terminal D1D2D3 region, residues 21 to 1259, without CysD1; The dimers assemble into two-start helical tubules at acidic pH; also called D1D2D3 fragment; MUC2 amino-terminal fragment spanning the D1D2D3 region but lacking CysD1; source: HEK 293F, transient transfection, purified from culture medium (Ni-NTA); not shown: His6, C-terminal, …
